Data: patent US20250302977A1
No constants are given. Whether binding was seen depends on the method and setting. Some binding calls cover weakened binding; strength is not graded here.

T1: soluble full-length uPARAP (UniProt Q9UBG0)
T1 sequence (looked up): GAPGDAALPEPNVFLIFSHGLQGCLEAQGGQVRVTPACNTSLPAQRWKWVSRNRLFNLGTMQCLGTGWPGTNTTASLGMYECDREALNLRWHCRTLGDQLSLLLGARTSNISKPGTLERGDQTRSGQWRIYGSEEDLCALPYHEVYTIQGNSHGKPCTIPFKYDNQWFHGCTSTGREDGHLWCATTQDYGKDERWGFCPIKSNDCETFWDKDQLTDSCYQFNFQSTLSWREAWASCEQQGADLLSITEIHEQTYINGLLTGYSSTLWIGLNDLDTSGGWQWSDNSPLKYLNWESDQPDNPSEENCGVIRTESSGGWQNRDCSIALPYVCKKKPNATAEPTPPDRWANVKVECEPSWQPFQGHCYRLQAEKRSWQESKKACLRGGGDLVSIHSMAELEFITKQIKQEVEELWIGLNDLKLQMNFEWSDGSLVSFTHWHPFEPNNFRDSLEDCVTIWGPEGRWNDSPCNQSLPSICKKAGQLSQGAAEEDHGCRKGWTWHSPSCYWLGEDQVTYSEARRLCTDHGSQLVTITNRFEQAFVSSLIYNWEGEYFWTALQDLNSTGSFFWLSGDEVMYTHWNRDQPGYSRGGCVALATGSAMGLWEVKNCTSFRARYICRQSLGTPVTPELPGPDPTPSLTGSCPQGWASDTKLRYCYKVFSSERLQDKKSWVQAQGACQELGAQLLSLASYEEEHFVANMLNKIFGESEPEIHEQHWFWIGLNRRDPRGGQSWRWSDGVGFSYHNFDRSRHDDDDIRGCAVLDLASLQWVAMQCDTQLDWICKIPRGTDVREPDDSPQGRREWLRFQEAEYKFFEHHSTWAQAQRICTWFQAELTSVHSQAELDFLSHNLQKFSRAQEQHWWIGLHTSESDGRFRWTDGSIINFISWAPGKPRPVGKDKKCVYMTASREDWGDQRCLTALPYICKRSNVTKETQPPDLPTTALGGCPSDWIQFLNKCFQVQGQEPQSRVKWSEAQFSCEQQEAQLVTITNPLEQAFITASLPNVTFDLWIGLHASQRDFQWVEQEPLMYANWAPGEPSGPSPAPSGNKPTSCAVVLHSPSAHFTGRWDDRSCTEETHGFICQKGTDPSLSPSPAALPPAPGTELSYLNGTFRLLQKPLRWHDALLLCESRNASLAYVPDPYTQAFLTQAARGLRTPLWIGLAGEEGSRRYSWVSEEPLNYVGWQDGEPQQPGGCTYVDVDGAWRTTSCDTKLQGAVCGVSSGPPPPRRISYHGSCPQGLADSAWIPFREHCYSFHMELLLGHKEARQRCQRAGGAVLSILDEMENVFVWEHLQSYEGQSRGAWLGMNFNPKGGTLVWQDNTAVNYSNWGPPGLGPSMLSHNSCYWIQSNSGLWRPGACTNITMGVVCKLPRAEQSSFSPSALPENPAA


Target: T1, soluble full-length uPARAP
Test: SPR, conclusion of Example 1

| Binder | binding |
| --- | --- |
| humanized 9b7 antibody 980.2 LC4HC3 (antibody, human IgG1, kappa, V domains shown) VH: QVQLVQSGAEVKKPGASVKVSCKASGYIFIDYGMHWVRQAPGQRLEWMGSINTKSGVSTYAAEFKGRVTIYSDTSASTAYMELSSLRSEDTAVYFCARPPYYSQYGSYWGQGTLVTVSS VL: EIVMTQSPDSLAVSLGERATINCKASQNVDTYVVWYQQKPGQPPQPLIYSASSRFSGVPDRFSGSGSGTDFTLTISSLQAEDVAIYYCQQYHNSPLTFGGGTKVEIKR | binds |
| chimeric antibody 980.2 LC0HC0 (antibody, human IgG1, kappa, V domains shown) VH: QVHLVQSGPELKKPGETVKISCKASGYIFIDYGMHWVKQAPGKGLKWMGSINTKSGVSTYAAEFKGRFAFSLETSASTAYLQINNLKNEDTATYFCARPPYYSQYGSYWGQGTLVTVSA VL: DIVMTQSQKFMSTSVGDRVSVTCKASQNVDTYVVWYQQKPGQSPKPLIYSASSRFSGVPDRFTGTGSGTDFTLTINNVQSEDLAEYFCQQYHNSPLTFGGGTKLEIKR | binds |
